Reference: the supplement of paper PMC12889115
The other results are listed elsewhere or left out. Values are raw readings; no control value is given beside them.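 First-pass screen: polymyxin B was added at a level that permeabilizes the Salmonella outer membrane while sparing the inner membrane. DMSO wells, with and without polymyxin B, defined maximum growth. Because plates differed from one another, each plate's data were ranked separately and the compounds with the lowest OD600 were carried forward as hits.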

System: Salmonella enterica serovar Typhimurium SL1344
Assay: bacterial growth OD600 after 18 h with compound and polymyxin B; higher = more bacterial growth (less inhibition)
Details: 50 µM, Mueller-Hinton broth

SMILES: O=C(CN1Cc2ccccc2OC(c2ccsc2)C1)N1CCCCC1c1nc2cc(F)ccc2[nH]1 (configuration not stated)
- bacterial growth OD600 (polymyxin B 0.75 µg/mL): 0.556

SMILES: Cc1ccccc1N1CCN(C2CCCN(C(=O)CCC3CCCC3)C2)CC1 (configuration not stated)
- bacterial growth OD600 (polymyxin B 1 µg/mL): 0.01

SMILES: Cc1cccc(CC(C)NC(=O)c2coc(COc3cccc(F)c3)n2)n1 (configuration not stated)
- bacterial growth OD600 (polymyxin B 1 µg/mL): 0.953

SMILES: CCC1CN(Cc2sccc2C)Cc2cc(OC)ccc2O1 (configuration not stated)
- bacterial growth OD600 (polymyxin B 0.75 µg/mL): 0.066

SMILES: O=C(CCC1CCCN(C23CC4CC(CC(C4)C2)C3)C1)NC1CC1 (configuration not stated)
- bacterial growth OD600 (polymyxin B 0.75 µg/mL): 0.812

SMILES: CCN(Cc1nccn1C)C(=O)c1ccc(NC2CCC2)nc1
- bacterial growth OD600 (polymyxin B 1 µg/mL): 0.96

SMILES: CC(C)N1CCC(N2CCCC(C(=O)NC3CCCC3)C2)CC1 (configuration not stated)
- bacterial growth OD600 (polymyxin B 0.75 µg/mL): 0.887

SMILES: CCOC(=O)C1(Cc2ccc(F)cc2F)CCCN(C(=O)c2ccc3c(c2)OCCO3)C1 (configuration not stated)
- bacterial growth OD600 (polymyxin B 1 µg/mL): 0.203

SMILES: Cc1nc(C(=O)N(CC2CCN(Cc3ccccc3F)CC2)CC2CCCO2)cs1 (configuration not stated)
- bacterial growth OD600 (polymyxin B 1 µg/mL): 0.829

SMILES: CC#CC(=O)NC1CCCc2c1cnn2-c1cccc(C)c1C (configuration not stated)
- bacterial growth OD600 (polymyxin B 1 µg/mL): 0.846

SMILES: Cc1nc(N2CCC(C(=O)N3CC[C@@H]4CCCC[C@H]4C3)CC2)nc2cc(S(C)(=O)=O)ccc12
- bacterial growth OD600 (polymyxin B 0.75 µg/mL): -0.002

SMILES: CN(CC1CCN(CCc2ccc(Cl)cc2)CC1)C1CCC1
- bacterial growth OD600 (polymyxin B 1 µg/mL): 0.777

SMILES: CCOC(=O)N1CCN(C(=O)C2CC23CCN(C(=O)C2CC(=O)c4ccccc42)CC3)CC1 (configuration not stated)
- bacterial growth OD600 (polymyxin B 0.75 µg/mL): 0.822

SMILES: Cc1cnc(C(=O)N2CCc3onc(-c4ccc5c(c4)OCO5)c3C2)cn1
- bacterial growth OD600 (polymyxin B 0.75 µg/mL): 0.832

SMILES: COc1cccc(-c2cc3c(c(OC)c2)OCCN(C(=O)C2CC2)C3)c1
- bacterial growth OD600 (polymyxin B 0.75 µg/mL): 0.578

SMILES: O=C(Cc1ccccc1)Nc1ccnn1C1CCN(Cc2ccccc2O)CC1
- bacterial growth OD600 (polymyxin B 0.75 µg/mL): 0.86

SMILES: Cc1nc(N2CCCCCCC2)ncc1C(C)NC(=O)CCC(N)=O (configuration not stated)
- bacterial growth OD600 (polymyxin B 1 µg/mL): 0.923

SMILES: CCCn1ncc(CN2C[C@H]3OC(=O)N(CCc4ccccn4)[C@H]3C2)c1C
- bacterial growth OD600 (polymyxin B 0.75 µg/mL): 0.821

SMILES: OCCC1CN(Cc2cccnc2)CCN1CC1CCCCC1 (configuration not stated)
- bacterial growth OD600 (polymyxin B 1 µg/mL): 0.952

SMILES: CCN(Cc1ccccc1)C(=O)CCC1(Cc2ccc3ccccc3c2)CCC(=O)N1 (configuration not stated)
- bacterial growth OD600 (polymyxin B 0.75 µg/mL): 0.74

SMILES: Cc1c(C(C)NCc2cccc3nonc23)cnn1-c1ccc(F)cc1F (configuration not stated)
- bacterial growth OD600 (polymyxin B 0.75 µg/mL): 0.641

SMILES: CCc1ocnc1C(=O)N1CCC2(CCCN(Cc3ccccc3F)C2=O)C1 (configuration not stated)
- bacterial growth OD600 (polymyxin B 1 µg/mL): 0.787

SMILES: CC#CC(=O)N1CCc2onc(-c3ccc(F)c(F)c3)c2C1
- bacterial growth OD600 (polymyxin B 0.75 µg/mL): 0.788

SMILES: Cc1cc(Cl)ccc1OC(C)C(=O)N1CCc2c(cnc(C)c2CNC(=O)c2ccccc2F)C1 (configuration not stated)
- bacterial growth OD600 (polymyxin B 0.75 µg/mL): 0.008

SMILES: CCOCC(O)CNC(=O)c1cc(OC)ccc1OC1CCN(C2CCCC2)CC1 (configuration not stated)
- bacterial growth OD600 (polymyxin B 1 µg/mL): 1.27

SMILES: O=C(c1csc2nc(-c3ccccc3)cn12)N1CCN(Cc2ccc3c(c2)OCO3)CC1
- bacterial growth OD600 (polymyxin B 1 µg/mL): 0.971

SMILES: CN(C)S(=O)(=O)NCC1CCCN(Cc2ccc3c(c2)OCCO3)C1 (configuration not stated)
- bacterial growth OD600 (polymyxin B 0.75 µg/mL): 0.838

SMILES: CSc1nc(C(=O)N2CCOC(CC3CCCCC3)C2)cs1 (configuration not stated)
- bacterial growth OD600 (polymyxin B 0.75 µg/mL): 0.716

SMILES: O=C(c1ccc2c(c1)OCO2)N1CCCC(Nc2ccc(F)cc2)C1 (configuration not stated)
- bacterial growth OD600 (polymyxin B 1 µg/mL): 0.931

SMILES: CCOC(=O)C1(Cc2cccc(OC)c2)CCN(Cc2ccc(OC)c(O)c2)CC1
- bacterial growth OD600 (polymyxin B 1 µg/mL): 1.11

SMILES: CSCC(=O)N1CCCC(CCc2ccccc2C)C1 (configuration not stated)
- bacterial growth OD600 (polymyxin B 0.75 µg/mL): 0.327

SMILES: Cc1cc(C)n(CCC(=O)N2CCc3c(cnc(C)c3CNS(=O)(=O)c3cccs3)C2)n1
- bacterial growth OD600 (polymyxin B 0.75 µg/mL): 0.818
